In article PMC3285591:
No constants are given. Whether binding was seen depends on the method and setting. In cells and extracts the contact can be indirect. Sequences can lack the tags named with a protein.

Molecular target: GST-ΔPDZ18E6 (HPV-18) (UniProt P06463)
Assay: pull-down; GST-wt18E6 or GST-ΔPDZ18E6 incubated with extracts of HEK293 cells transfected with HA-tagged Dlg, alone or with Myc-tagged SGEF; western blot with anti-HA and anti-Myc; only the target purified

B1: Myc-tagged wtSGEF (protein, UniProt Q96DR7 1-871)
chain: MDGESEVDFSSNSITPLWRRRSIPQPHQVLGRSKPRPQSYQSPNGLLITDFPVEDGGTLLAAQIPAQVPTASDSRTVHRSPLLLGAQRRAVANGGTASPEYRAASPRLRRPKSPKLPKAVPGGSPKSPANGAVTLPAPPPPPVLRPPRTPNAPAPCTPEEDLTGLTASPVPSPTANGLAANNDSPGSGSQSGRKAKDPERGLFPGPQKSSSEQKLPLQRLPSQENELLENPSVVLSTNSPAALKVGKQQIIPKSLASEIKISKSNNQNVEPHKRLLKVRSMVEGLGGPLGHAGEESEVDNDVDSPGSLRRGLRSTSYRRAVVSGFDFDSPTSSKKKNRMSQPVLKVVMEDKEKFSSLGRIKKKMLKGQGTFDGEENAVLYQNYKEKALDIDSDEESEPKEQKSDEKIVIHHKPLRSTWSQLSAVKRKGLSQTVSQEERKRQEAIFEVISSEHSYLLSLEILIRMFKNSKELSDTMTKTERHHLFSNITDVCEASKKFFIELEARHQNNIFIDDISDIVEKHTASTFDPYVKYCTNEVYQQRTLQKLLATNPSFKEVLSRIESHEDCRNLPMISFLILPMQRVTRLPLLMDTICQKTPKDSPKYEVCKRALKEVSKLVRLCNEGARKMERTEMMYTINSQLEFKIKPFPLVSSSRWLVKRGELTAYVEDTVLFSRRTSKQQVYFFLFNDVLIITKKKSEESYNVNDYSLRDQLLVESCDNEELNSSPGKNSSTMLYSRQSSASHLFTLTVLSNHANEKVEMLLGAETQSERARWITALGHSSGKPPADRTSLTQVEIVRSFTAKQPDELSLQVADVVLIYQRVSDGWYEGERLRDGERGWFPMECAKEITCQATIDKNVERMGRLLGLETNV
In the case of B1, the binding is reported as “no binding”.
